Results reported in article PMC7819943, “Rice protein-binding microarrays: a tool to detect cis-acting elements near promoter regions in rice”.
This is one part of the list.

What follows are sequences tested against T1, OsSMF1 (Oryza sativa, UniProt Q6ZLB0 1-436) (assay: protein-binding microarray (RPBM); PBS, 2% BSA, 51.3 ng/ul salmon testes DNA, 50 uM zinc acetate, 200 nM TF, 25 C, 1 h; high values mean tight binding). Settings: protein: recombinant; tags: N-terminal polyhistidine and DsRed monomer fusion (pET32a); chain copies: 2; label: CyDye5-dUTP incorporated in the synthesized complementary strand; 3' TTTTT single-stranded linker to array surface; dsDNA, one strand shown.
T1 sequence: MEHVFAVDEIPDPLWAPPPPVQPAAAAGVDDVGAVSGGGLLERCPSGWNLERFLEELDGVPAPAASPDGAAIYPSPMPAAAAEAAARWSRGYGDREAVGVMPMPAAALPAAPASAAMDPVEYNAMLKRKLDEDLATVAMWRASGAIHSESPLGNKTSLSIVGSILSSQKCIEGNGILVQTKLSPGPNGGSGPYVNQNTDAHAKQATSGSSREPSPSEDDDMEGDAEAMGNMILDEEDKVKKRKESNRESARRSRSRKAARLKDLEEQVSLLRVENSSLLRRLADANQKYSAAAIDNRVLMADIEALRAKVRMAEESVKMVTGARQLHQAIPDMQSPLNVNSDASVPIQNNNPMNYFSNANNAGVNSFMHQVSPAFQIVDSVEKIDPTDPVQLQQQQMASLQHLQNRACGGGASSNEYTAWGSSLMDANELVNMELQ
Summary of the method: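 Using Ni–NTA, transcription factors fused N-terminally to polyhistidine and DsRed were purified after expression in E. coli BL21-CodonPlus. These were incubated at 200 nM with a blocked, double-stranded custom Agilent array for 1 h at 25 °C in a buffer containing 50 µM zinc acetate, and the array was washed. The binding signal is per-feature fluorescence intensity (arbitrary units) on an Axon 4000B scanner.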

Sequence	binding signal
AGTTCACCCATTGCAAAGCACATGACTCATACTAGATATCCGGAGTCACCTAGTGCAG	9880 fluorescence intensity (a.u.)
TGATATACGGTTCAGATAGAATGAAATTCACCGTGGGAATCGGAGTCACCTAGTGCAG	3190 fluorescence intensity (a.u.)
CGCGCACGCCACGCCACGCCACGCCACGCCGCGCCACCTGCGGAGTCACCTAGTGCAG	5920 fluorescence intensity (a.u.)
CCGCCTAGTCTCATTGGAAACCACCTCATTAGTCATCCCACGGAGTCACCTAGTGCAG	3320 fluorescence intensity (a.u.)
AACATAACTGCCTAGTCAGGATGTAAAATATTTCCAAGGTCGGAGTCACCTAGTGCAG	3860 fluorescence intensity (a.u.)
GTTAAGAAAAGAAAACCACCGACGAGTCCATTCGTTTTCACGGAGTCACCTAGTGCAG	3280 fluorescence intensity (a.u.)
TTGACAAGAGTAGAACAACAACAACATCATCATCATCTATCGGAGTCACCTAGTGCAG	3290 fluorescence intensity (a.u.)
AACCGGTCTTTCCGCCACCTCGGTACGTGTTCGACATGTTCGGAGTCACCTAGTGCAG	4170 fluorescence intensity (a.u.)
TGTTGTGCTGGTTGGTTCCAGATCTAACAGTGACAGTGCGCGGAGTCACCTAGTGCAG	4380 fluorescence intensity (a.u.)
GTGGTTGACATGTGGACCTGGTCCTATATGTCAGTGGCTGCGGAGTCACCTAGTGCAG	3510 fluorescence intensity (a.u.)
CGAAGCCGCACGAAGGTGGTGGTGGTTGGTGGTAGGGTTTCGGAGTCACCTAGTGCAG	3190 fluorescence intensity (a.u.)
GGCTCTGGCAGCACAATTCAGTTCTTGTACTTGTGAAACACGGAGTCACCTAGTGCAG	18200 fluorescence intensity (a.u.)
GTGAGAGCTCGGGATGTAGCGTGGCGTGGCGGCGCGGGTCCGGAGTCACCTAGTGCAG	4040 fluorescence intensity (a.u.)
GTTGTCAAATGAGTCAATTAGATATTTCCAACCCACACTACGGAGTCACCTAGTGCAG	4900 fluorescence intensity (a.u.)
GTTACTCACATAATATCGTGGCAGGGAGGCATTGATGATGCGGAGTCACCTAGTGCAG	3580 fluorescence intensity (a.u.)
TCCACCACCACCACCATGCATCACCACGTAGACAAATTCACGGAGTCACCTAGTGCAG	6060 fluorescence intensity (a.u.)
ATCTACTGATCTAGTCATCGATCCATGCATCCATCCATCACGGAGTCACCTAGTGCAG	6180 fluorescence intensity (a.u.)
GATACACGCATCATCATCATCATCATCATCATCCGTACAACGGAGTCACCTAGTGCAG	4540 fluorescence intensity (a.u.)
TCCTCCTCCCGCACAGATTCCGCAGTCGAGTCGCACTCCACGGAGTCACCTAGTGCAG	3470 fluorescence intensity (a.u.)
GGCGCCGGGGTGGGGTGGTGCTGGAGCCACCGGAGGAGCGCGGAGTCACCTAGTGCAG	4510 fluorescence intensity (a.u.)
CCACTAACCGGATCCATATATATTCGATTTTGGGTGGTGGCGGAGTCACCTAGTGCAG	3150 fluorescence intensity (a.u.)

Single values from the entries so far:
For binding signal, CCGCCTAGTCTCATTGGAAACCACCTCATTAGTCATCCCACGGAGTCACCTAGTGCAG has the entry 3320 fluorescence intensity (a.u.)
For binding signal, TTGACAAGAGTAGAACAACAACAACATCATCATCATCTATCGGAGTCACCTAGTGCAG has the entry 3290 fluorescence intensity (a.u.)
For binding signal, GTTGTCAAATGAGTCAATTAGATATTTCCAACCCACACTACGGAGTCACCTAGTGCAG has the entry 4900 fluorescence intensity (a.u.)

(further entries)

Sequence	binding signal
TGTGGTTACTGTGTCGTTACTGTCTATATACCTCCCTGTTCGGAGTCACCTAGTGCAG	3160 fluorescence intensity (a.u.)
AACTTTGATGTTTAACACGTAATGTTACTGATCAAGCTTTCGGAGTCACCTAGTGCAG	3600 fluorescence intensity (a.u.)
GGGACCCAGGGTCGGGTTGCCAGTTCGGTCTGAATCATCGCGGAGTCACCTAGTGCAG	3600 fluorescence intensity (a.u.)
GATCGACGGAGAGGATCGAGGCGCGCGCTGACGTCAGCTCCGGAGTCACCTAGTGCAG	26300 fluorescence intensity (a.u.)
ACGGATGTCATGGCGGCGTCGTGGCCCCTGTCGCGGCGTGCGGAGTCACCTAGTGCAG	3520 fluorescence intensity (a.u.)
GAAATAATTAATCAATTAACGCTGATGTGTGAGCTGCGTACGGAGTCACCTAGTGCAG	6010 fluorescence intensity (a.u.)
AAAGTCAACGGTGTCAAATATTTTAAAACGGAGGGAGTATCGGAGTCACCTAGTGCAG	5540 fluorescence intensity (a.u.)
TTTGAGTCCACATCATCACAGTACCCTACTCTTATACTCCCGGAGTCACCTAGTGCAG	14200 fluorescence intensity (a.u.)
AGGCTTAAAAGATTCATCTCGTAATTTACACGTAATCTGTCGGAGTCACCTAGTGCAG	4430 fluorescence intensity (a.u.)
ATAAGCTCTCTATAAGAAATCCATGTCAGCATATTTTCCTCGGAGTCACCTAGTGCAG	15300 fluorescence intensity (a.u.)
GTCAACACCGCTACGTCAACGTCATGTCAGTAAAACCTTTCGGAGTCACCTAGTGCAG	4300 fluorescence intensity (a.u.)
GAAAAGCTTCATTGTTGGCTTATCTATAAAATATATGATTCGGAGTCACCTAGTGCAG	3540 fluorescence intensity (a.u.)
TAAATCCACACCACACCAGTATCTATCTTGGCTCTGGTTCCGGAGTCACCTAGTGCAG	3580 fluorescence intensity (a.u.)
GTGATTTATCCGAGCAGAGTGGCGGCGGCTTCGCCGAGTACGGAGTCACCTAGTGCAG	39600 fluorescence intensity (a.u.)
TGTTTGCATATAATATTGCCAGCTCAAGGATGACAAGTATCGGAGTCACCTAGTGCAG	3940 fluorescence intensity (a.u.)
GAGCGCGAGCTGCTCTCCTCTCCTCCCGCCCCGCGTCGCCCGGAGTCACCTAGTGCAG	11500 fluorescence intensity (a.u.)
TGATTTATTGGATGGATCTGAGATGACCTGTGATGTATTTCGGAGTCACCTAGTGCAG	3230 fluorescence intensity (a.u.)
CCGTGGAAGTGCGCGTGCGTCCGCTTGCGTGGTTTTGGAACGGAGTCACCTAGTGCAG	4210 fluorescence intensity (a.u.)
CCAACGTTCGCCCCGACGCGTTCCACCTCATCGGCCACCCCGGAGTCACCTAGTGCAG	8460 fluorescence intensity (a.u.)
AGGCTGCGCCGCCACGGGCGCCTGCGTCACCCCGTCCCATCGGAGTCACCTAGTGCAG	4980 fluorescence intensity (a.u.)
ACAAAAGCCGCCGTGACGAAGCAGATCGAAGCATCGCGCCCGGAGTCACCTAGTGCAG	3550 fluorescence intensity (a.u.)
